Experimental data published in publication PMC9294000.
These are yes or no findings as the source states them, for the method shown. Some entries that bind do so weakly or less than the wild type.

Protein sequences, listed by entry. Tags and fused reporters are not part of them. Residues count along the entry.
UniProt Q96EP0, residues 350-379: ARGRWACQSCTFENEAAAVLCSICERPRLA
UniProt Q9Y6K9, residues 257-346: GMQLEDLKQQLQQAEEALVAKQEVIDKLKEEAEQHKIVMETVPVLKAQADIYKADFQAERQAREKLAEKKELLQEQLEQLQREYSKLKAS

Target: human HOIP NZF1 (hHOIP NZF1, aa. 350–379) (human) (UniProt Q96EP0)
Assay: crystal structure; hHOIP NZF1, hNEMO and linear di-ubiquitin purified separately, mixed in an equimolar ratio; sitting drops, 0.1 M Tris-HCl pH 8.5, 22% v/v PEG Smear Broad; 4.2 Å; heteropentameric complex; both purified

binding: binds weakly
Substance: human NEMO (hNEMO, aa. 257–346) (from UniProt Q9Y6K9 257-346) (domain or fragment)
